The results in this text go back to patent US9684238B2, “Fluorene-type compound, photopolymerization initiator comprising said fluorene-type compound, and photosensitive composition containing said photopolymerization initiator” (TOKYO OHKA KOGYO CO., LTD., priority 2012, dated 2017).

The nature of data set [1]: Evaluation 3: straightness of pattern, black photosensitive composition. More on the design: key: Good: The case where a good linear pattern was formed was evaluated as good; Bad: the case where the distortion of the pattern image or unevenness at an end portion thereof was observed was evaluated as bad.
The nature of data set [2]: Evaluation 3: peeling of pattern, black photosensitive composition. Also noted: key: Good: The case where the external appearance did not change and the peeling of the cured film did not occur was evaluated as good.
The nature of data set [3]: Evaluation 3: residue, black photosensitive composition. More on the design: key: Absent: The case where the residue of the coating film in the unexposed portion was absent was evaluated as absent.
The mark [4] stands for this setting: 10 mJ/cm^2, development in 0.1% TMAH.
Where [5] appears, read: 20 mJ/cm^2, development in 0.1% TMAH.
The mark [6] stands for this setting: 40 mJ/cm^2, development in 0.1% TMAH.
Where [7] appears, read: 60 mJ/cm^2, development in 0.1% TMAH.
Setting [8] is: 80 mJ/cm^2, development in 0.1% TMAH.
The mark [9] stands for this setting: 10 mJ/cm^2, unexposed portion after development.
[10] abbreviates: 20 mJ/cm^2, unexposed portion after development.
[11] abbreviates: 40 mJ/cm^2, unexposed portion after development.
[12] abbreviates: 60 mJ/cm^2, unexposed portion after development.
Where [13] appears, read: 80 mJ/cm^2, unexposed portion after development.

For the molecule `CCCC1(CCC)c2cc(C(=O)c3ccc([N+](=O)[O-])cc3)ccc2-c2ccc(C(=NOC(C)=O)C(C)C)cc21` (mixture of isomers) [Compound D-8], the Straightness result in data set [1] (10 mJ/cm^2), in data set [1] (20 mJ/cm^2), in data set [1] (40 mJ/cm^2), in data set [1] (60 mJ/cm^2) and in data set [1] (80 mJ/cm^2) was “Good” in each case. Also, the Peeling entry in data set [2] (setting [4]), in data set [2] (setting [5]), in data set [2] (setting [6]), in data set [2] (setting [7]) and in data set [2] (setting [8]) was “Good” in each case. Also, the Residue result in data set [3] (setting [9]), in data set [3] (setting [10]), in data set [3] (setting [11]), in data set [3] (setting [12]) and in data set [3] (setting [13]) was “Absent” each time.

Turning to `CCCC1(CCC)c2cc(C(=NOC(C)=O)c3ccccc3C)ccc2-c2ccc([N+](=O)[O-])cc21` [Compound 1], the Straightness entry in data set [1] (10 mJ/cm^2), in data set [1] (20 mJ/cm^2), in data set [1] (40 mJ/cm^2), in data set [1] (60 mJ/cm^2) and in data set [1] (80 mJ/cm^2) was “Good” each time. Also, the Peeling entry in data set [2] (setting [4]), in data set [2] (setting [5]), in data set [2] (setting [6]), in data set [2] (setting [7]) and in data set [2] (setting [8]) was “Good” throughout. Besides, the Residue result in data set [3] (setting [9]), in data set [3] (setting [10]), in data set [3] (setting [11]), in data set [3] (setting [12]) and in data set [3] (setting [13]) was “Absent” in each case.

Regarding `CCCCCCC1(CCCCCC)c2cc(C(=NOC(C)=O)c3ccccc3C)ccc2-c2ccc([N+](=O)[O-])cc21` [Compound 2], the Straightness result in data set [1] (10 mJ/cm^2), in data set [1] (20 mJ/cm^2), in data set [1] (40 mJ/cm^2), in data set [1] (60 mJ/cm^2) and in data set [1] (80 mJ/cm^2) was “Good” throughout. In addition, the Peeling result in data set [2] (setting [4]), in data set [2] (setting [5]), in data set [2] (setting [6]), in data set [2] (setting [7]) and in data set [2] (setting [8]) was “Good” each time. Further, the Residue result in data set [3] (setting [9]), in data set [3] (setting [10]), in data set [3] (setting [11]), in data set [3] (setting [12]) and in data set [3] (setting [13]) was “Absent” throughout.

On to `CCCC1(CCC)c2cc(C(=O)c3ccccc3C)ccc2-c2ccc(/C(C)=N/OC(C)=O)cc21` [Compound 4], for which the Straightness result in data set [1] (10 mJ/cm^2) was “Bad”; in data set [1] (20 mJ/cm^2), “Good”; in data set [1] (40 mJ/cm^2) it was “Good”; in data set [1] (60 mJ/cm^2), “Good”; in data set [1] (80 mJ/cm^2), “Good”. The Peeling entry in data set [2] (setting [5]), in data set [2] (setting [6]), in data set [2] (setting [7]) and in data set [2] (setting [8]) was “Good” each time. Also, the Residue result in data set [3] (setting [9]), in data set [3] (setting [10]), in data set [3] (setting [11]), in data set [3] (setting [12]) and in data set [3] (setting [13]) was “Absent” in each case.

As to `CCCCCCC1(CCCCCC)c2cc(C(=O)c3ccccc3C)ccc2-c2ccc(C(C)=NOC(C)=O)cc21` [Compound 6], the Straightness result is “Bad” in data set [1] (10 mJ/cm^2); “Good” in data set [1] (20 mJ/cm^2); “Good” in data set [1] (40 mJ/cm^2); “Good” in data set [1] (60 mJ/cm^2); “Good” in data set [1] (80 mJ/cm^2). Also, the Peeling result in data set [2] (setting [5]), in data set [2] (setting [6]), in data set [2] (setting [7]) and in data set [2] (setting [8]) was “Good” in each case. Besides, the Residue entry in data set [3] (setting [9]), in data set [3] (setting [10]), in data set [3] (setting [11]), in data set [3] (setting [12]) and in data set [3] (setting [13]) was “Absent” in each case.

In the case of `CCCCCCC1(CCCCCC)c2cc(C(=O)c3ccccc3)ccc2-c2ccc(C(C)=NOC(C)=O)cc21` [Compound 8], the Straightness result in data set [1] (10 mJ/cm^2) is “Bad”; in data set [1] (20 mJ/cm^2), “Good”; in data set [1] (40 mJ/cm^2), “Good”; in data set [1] (60 mJ/cm^2), “Good”; in data set [1] (80 mJ/cm^2), “Good”. Besides, the Peeling result in data set [2] (setting [5]), in data set [2] (setting [6]), in data set [2] (setting [7]) and in data set [2] (setting [8]) was “Good” throughout. For the same molecule, the Residue result in data set [3] (setting [9]), in data set [3] (setting [10]), in data set [3] (setting [11]), in data set [3] (setting [12]) and in data set [3] (setting [13]) was “Absent” throughout.

Regarding `CCCCCCC1(CCCCCC)c2cc(C(=O)c3ccc(F)cc3)ccc2-c2ccc(/C(CC(C)N(OC(C)=O)C(C)=O)=N\OC(C)=O)cc21` (stereo not shown) [Compound 9], the Straightness entry in data set [1] (10 mJ/cm^2) is on record as “Bad”; in data set [1] (20 mJ/cm^2), “Good”; in data set [1] (40 mJ/cm^2), “Good”; in data set [1] (60 mJ/cm^2), “Good”; in data set [1] (80 mJ/cm^2) it was “Good”. Moreover, the Peeling entry in data set [2] (setting [5]), in data set [2] (setting [6]), in data set [2] (setting [7]) and in data set [2] (setting [8]) was “Good” in each case. Moreover, the Residue entry in data set [3] (setting [9]), in data set [3] (setting [10]), in data set [3] (setting [11]), in data set [3] (setting [12]) and in data set [3] (setting [13]) was “Absent” throughout.

As to `CCn1c2ccc(C(=O)c3ccccc3C)cc2c2cc(/C(C)=N/OC(C)=O)ccc21` [Compound C-1, reference compound], the Straightness result in data set [1] (10 mJ/cm^2) was “Bad”; in data set [1] (20 mJ/cm^2), “Good”; in data set [1] (40 mJ/cm^2) it was “Good”; in data set [1] (60 mJ/cm^2), “Good”; in data set [1] (80 mJ/cm^2) it was “Good”. For the same molecule, the Peeling result in data set [2] (setting [5]), in data set [2] (setting [6]), in data set [2] (setting [7]) and in data set [2] (setting [8]) was “Good” in each case. Further, the Residue result in data set [3] (setting [9]), in data set [3] (setting [10]), in data set [3] (setting [11]), in data set [3] (setting [12]) and in data set [3] (setting [13]) was “Absent” each time.

As to `CCCC1(CCC)c2cc(C(=NOC(C)=O)c3ccccc3)ccc2-c2ccc([N+](=O)[O-])cc21` [Compound D-1], the Straightness entry in data set [1] (10 mJ/cm^2), in data set [1] (20 mJ/cm^2), in data set [1] (40 mJ/cm^2), in data set [1] (60 mJ/cm^2) and in data set [1] (80 mJ/cm^2) was “Good” each time. Also, the Peeling result in data set [2] (setting [4]), in data set [2] (setting [5]), in data set [2] (setting [6]), in data set [2] (setting [7]) and in data set [2] (setting [8]) was “Good” throughout. Besides, the Residue result in data set [3] (setting [9]), in data set [3] (setting [10]), in data set [3] (setting [11]), in data set [3] (setting [12]) and in data set [3] (setting [13]) was “Absent” in each case.
